For this experiment, the system named is BDF1 mice, P388 leukemia ip, median survival T/C. The experiment in a line: NCI In Vivo Anticancer Drug Screen. Data for tumor model P388 Leukemia (intraperitoneal) in B6D2F1 (BDF1) mice. As to conditions: T/C endpoint: median survival time, higher T/C = longer survival. In short, it runs like this:
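Steps: implant the tumour, treat one group with compound and another with vehicle, record survival, then divide treated by control.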

Setting [1] is: dose: 50.0 mg/kg/injection, schedule: Q01DX009 (ip), vehicle: saline with Tween-80.
Setting [2] is: dose: 400.0 mg/kg/injection, schedule: Q01DX009 (ip), vehicle: saline.
[3] abbreviates: dose: 200.0 mg/kg/injection, schedule: Q01DX009 (ip), vehicle: saline with Tween-80.
Where [4] appears, read: dose: 400.0 mg/kg/injection, schedule: Q01DX009 (ip), vehicle: saline with Tween-80.
Setting [5] is: dose: 400.0 mg/kg/injection, schedule: Q04DX003 (ip), vehicle: saline with Tween-80.

The list is a part of this screen's results and no random one: it is rich in T/C values a quarter to a half above the control, in often repeated tests (any T/C) and in doses without a T/C. Further doses and runs are listed elsewhere. T/C: endpoint of the treated group in % of that of the vehicle group. Some entries give survivors of the animals treated and no T/C: the source holds a T/C of zero for them, seemingly a mark for toxic or unscored doses. Some doses without a T/C left all or most animals alive at the check, yet need not have been tolerated: survival well below the control is almost never listed, so the zero probably covers shortened survival too. Survivors were counted at the toxicity check, usually on the fifth day, unless a day is given; later deaths do not show. Schedule codes are those of the source, read here as Q, the interval in days (D) or hours (H), X, the number of doses. Some entries were tested several times; their values stand side by side, smallest first. For survival time, this PubChem deposit counts one and a half times the control or more as active, and values a quarter to a half above the control carry no call in these data; other NCI protocols may use other cut-offs. Some T/C values are followed by the survivors on the day toxicity was checked, most often the fifth; without a count, all were alive then.

As for `COc1cc(-c2ccc(Nc3ccccc3C(=O)O)c(OC)c2)ccc1N`, under setting [1], the T/C is 127 and 142 % of control. For the same compound, the survivor count (dose: 100.0 mg/kg/injection, schedule: Q01DX009 (ip), vehicle: saline with Tween-80) is on record as 5 of 6. `CS(=O)(=O)Nc1ccc(C(=O)CCN2CCCCCC2)cc1`: for the setting “dose: 100.0 mg/kg/injection, schedule: Q01DX009 (ip), vehicle: saline”, the T/C was 130 and 143 % of control. For the same compound, the survivor count (dose: 200.0 mg/kg/injection, schedule: Q01DX009 (ip), vehicle: saline) was 1 of 6 and 2 of 6. As for `NC(=O)C(O)C(Br)(Br)Br` (stereo unspecified), under setting [2], the survivor count is recorded as 5 of 5. `CCOC(=O)c1c[nH]n2c(=S)ncnc12`: the T/C under setting [3] is 127 % of control. The survivor count under setting [4] is recorded as 3 of 6. Take `CC1CN1CCS(=O)(=O)CCN1CC1C` (stereo unspecified): the T/C (dose: 100.0 mg/kg/injection, schedule: Q01DX009 (ip), vehicle: other) is 136 % of control.

On to `CCOC(=S)SCc1cc(C(C)(C)C)c(O)c(C(C)(C)C)c1`, for which, under “dose: 400.0 mg/kg/injection, schedule: Q04DX002 (ip), vehicle: saline with Tween-80”, the T/C was 128 % of control. As to `CCCCCCC(=O)/C=C/c1cccc(Cl)c1`, the survivor count (dose: 200.0 mg/kg/injection, schedule: Q04DX003 (ip), vehicle: saline) was 6 of 6. As for `CCCCCCCCCC(=O)OCC1OC(=O)C(C)N(C)C(=O)CN(C)C(=O)C2C(=O)CC(C)N2C(=O)C(C(C)C)NC(=O)C1NC(=O)c1c2nc3c(C(=O)NC4C(=O)NC(C(C)C)C(=O)N5C(C)CC(OC(=O)CCCCCCCCC)C5C(=O)N(C)CC(=O)N(C)C(C(C)C)C(=O)OC4C)ccc(C)c3oc-2c(C)c(=O)c1N` (stereo unspecified), the survivor count (dose: 1.2 mg/kg/injection, schedule: Q04DX003 (ip), vehicle: saline with Tween-80) is reported as 8 of 8. As to `CC1(C)CC1(Br)Br`, under setting [1], the T/C was 126 and 135 % of control. Also, under setting [3], the survivor count is listed as 3 of 6. Consider `S=P(S)(c1ccccc1)c1ccccc1`, for which the T/C by setting is: (dose: 161.0 mg/kg/injection, schedule: Q01DX009 (ip), vehicle: saline) 125 and 145 % of control; (dose: 322.0 mg/kg/injection, schedule: Q01DX009 (ip), vehicle: saline) 125 % of control.

Turning to `NC(=S)c1cncnc1N`, the survivor count by setting is: (dose: 200.0 mg/kg/injection, schedule: Q04DX003 (ip), vehicle: saline with Tween-80) 0 of 6; under setting [5], 0 of 6. As to `c1nc(N2CC2)c2cnn(C3CCCCO3)c2n1` (stereo unspecified), for the setting “dose: 400.0 mg/kg/injection, schedule: Q01DX009 (ip), vehicle: Klucel (hydroxypropylcellulose) (HPC)”, the survivor count is on record as 0 of 6. For the compound `COc1cc([N+](=O)[O-])c(C)cc1NC(=O)c1ccc(OC)c(OC)c1`, the survivor count (dose: 12.5 mg/kg/injection, schedule: Q01DX009 (ip), vehicle: saline) is recorded as 6 of 6. Take `CC(C)(C)OC(=O)NC(CC(Cc1ccccc1)C(=O)O)C(=O)NC(CC(Cc1ccccc1)C(=O)O)C(=O)NC(CC(Cc1ccccc1)C(=O)O)C(=O)NCC(=O)Oc1ccc([N+](=O)[O-])cc1` (stereo unspecified): the survivor count (dose: 100.0 mg/kg/injection, schedule: Q01DX005 (ip), vehicle: saline with Tween-80) is recorded as 5 of 5. Consider `NC(=O)c1nccnc1Cl`, for which the survivor count under setting [4] is 3 of 6. As to `COc1c(Br)cc(/C=C(/C)[N+](=O)[O-])cc1Br`, the survivor count under setting [5] was 5 of 6.

`C=CCN1C(=O)CN=C1SC(=O)Nc1ccc(Cl)cc1`: the survivor count (dose: 200.0 mg/kg/injection, schedule: Q01DX005 (ip), vehicle: saline with Tween-80) was 4 of 5. For the compound `ClC1CC[N-]CC1.ClC1CC[N-]CC1.[Cl][Pt+2]([Cl])([Cl])[Cl]`, the T/C is 132 % of control (dose: 3.12 mg/kg/injection, schedule: Q01DX009 (ip), vehicle: Klucel (hydroxypropylcellulose) (HPC)) and 147 % of control (dose: 6.25 mg/kg/injection, schedule: Q01DX009 (ip), vehicle: Klucel (hydroxypropylcellulose) (HPC)). With `C[n+]1c(-c2ccc(Cl)c(Cl)c2)c2cc(N)ccc2c2ccccc21`, the T/C runs as follows: (dose: 3.12 mg/kg/injection, schedule: Q01DX009 (ip), vehicle: water) 145 % of control [5 of 6 alive]; (dose: 6.25 mg/kg/injection, schedule: Q01DX009 (ip), vehicle: water) 133 % of control. For `CC(=O)c1ccccc1C(C)C`, the survivor count is listed as 3 of 6 (dose: 225.0 mg/kg/injection, schedule: Q01DX009 (ip), vehicle: saline) and 0 of 6 (dose: 340.0 mg/kg/injection, schedule: Q01DX009 (ip), vehicle: saline). With `C/C(=C\Br)CO`, the survivor count under setting [2] is reported as 0 of 6. Take `CC(=O)O[C@@H]1c2c(c3c(=O)c4cccc(O)c4c(=O)c=3c2=[N+]=[N-])[C@H](OC(C)=O)[C@@H](OC(C)=O)[C@]1(C)O`: the survivor count (dose: 12.0 mg/kg/injection, schedule: Q01DX009 (ip), vehicle: Klucel (hydroxypropylcellulose) (HPC)) is given as 2 of 3.
